Consider 3 substances from paper PMC7347577.

Amino acid sequences for entries named in this document (tags omitted).
UniProt P10126: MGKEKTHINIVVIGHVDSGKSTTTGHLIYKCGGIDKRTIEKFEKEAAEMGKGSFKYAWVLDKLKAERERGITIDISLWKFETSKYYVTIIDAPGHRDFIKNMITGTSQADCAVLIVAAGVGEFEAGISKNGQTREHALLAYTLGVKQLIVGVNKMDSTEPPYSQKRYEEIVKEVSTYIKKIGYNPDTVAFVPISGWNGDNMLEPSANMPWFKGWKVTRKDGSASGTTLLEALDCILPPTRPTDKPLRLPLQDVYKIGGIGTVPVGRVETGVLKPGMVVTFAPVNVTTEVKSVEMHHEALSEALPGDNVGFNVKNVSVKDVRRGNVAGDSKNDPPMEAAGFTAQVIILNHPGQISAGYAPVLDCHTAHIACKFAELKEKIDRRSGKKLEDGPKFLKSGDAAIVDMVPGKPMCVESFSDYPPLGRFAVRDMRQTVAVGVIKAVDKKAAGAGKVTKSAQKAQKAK
UniProt P97371: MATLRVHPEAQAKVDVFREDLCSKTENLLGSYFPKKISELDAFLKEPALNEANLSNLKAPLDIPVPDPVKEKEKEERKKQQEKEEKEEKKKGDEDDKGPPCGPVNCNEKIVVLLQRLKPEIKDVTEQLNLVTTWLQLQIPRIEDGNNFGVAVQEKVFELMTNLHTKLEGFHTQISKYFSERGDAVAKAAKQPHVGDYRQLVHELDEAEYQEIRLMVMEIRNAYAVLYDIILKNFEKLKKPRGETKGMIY
UniProt P97372: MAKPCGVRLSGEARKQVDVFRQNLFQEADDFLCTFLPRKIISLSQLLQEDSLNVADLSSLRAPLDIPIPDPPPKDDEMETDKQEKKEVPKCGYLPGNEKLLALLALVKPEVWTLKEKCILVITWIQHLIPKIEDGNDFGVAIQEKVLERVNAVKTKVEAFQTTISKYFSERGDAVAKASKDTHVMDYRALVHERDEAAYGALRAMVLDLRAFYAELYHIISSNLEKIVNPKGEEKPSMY
UniProt P42227: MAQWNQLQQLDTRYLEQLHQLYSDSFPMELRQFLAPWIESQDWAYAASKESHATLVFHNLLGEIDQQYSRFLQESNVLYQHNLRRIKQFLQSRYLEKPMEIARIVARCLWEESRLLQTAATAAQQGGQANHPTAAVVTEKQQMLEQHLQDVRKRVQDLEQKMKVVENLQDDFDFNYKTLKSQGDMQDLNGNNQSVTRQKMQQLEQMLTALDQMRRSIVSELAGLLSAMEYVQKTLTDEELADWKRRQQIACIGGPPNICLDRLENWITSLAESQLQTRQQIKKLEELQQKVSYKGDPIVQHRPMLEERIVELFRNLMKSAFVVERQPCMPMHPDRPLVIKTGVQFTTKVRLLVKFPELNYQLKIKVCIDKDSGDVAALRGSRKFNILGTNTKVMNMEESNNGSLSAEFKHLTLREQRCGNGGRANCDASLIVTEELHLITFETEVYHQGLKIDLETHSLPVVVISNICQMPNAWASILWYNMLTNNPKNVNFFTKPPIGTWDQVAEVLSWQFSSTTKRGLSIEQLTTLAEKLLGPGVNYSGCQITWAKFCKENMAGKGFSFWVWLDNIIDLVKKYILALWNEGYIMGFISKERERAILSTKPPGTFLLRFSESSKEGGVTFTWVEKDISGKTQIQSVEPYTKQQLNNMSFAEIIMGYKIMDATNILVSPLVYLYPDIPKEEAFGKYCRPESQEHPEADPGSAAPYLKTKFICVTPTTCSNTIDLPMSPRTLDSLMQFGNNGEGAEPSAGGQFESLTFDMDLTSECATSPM

Results are given in words; binding and its absence hold for the method and conditions named. Binding seen in cells or lysates may run through a third protein. Here binding means that the protein was enriched with, or labelled near, the bait; the list need not be complete.

This experiment deals with eukaryotic elongation factor 1A1 (eEF1A1), endogenous in mouse sciatic nerve (mouse (endogenous in sciatic nerve)) (UniProt P10126). The experiment can be described thus: affinity purification with mass spectrometry; IP of eEF1A1 from mouse sciatic nerves at 2dpl compared to unlesioned nerves; beads eluted, SDS-PAGE, in-gel trypsin digestion, LC-MS/MS, MaxQuant.
Turning to “Proteasome activator subunit 1, endogenous in mouse sciatic nerve (from UniProt P97371 1-249)”, the binding result is on record as “binds”.
Take “Proteasome activator subunit 2, endogenous in mouse sciatic nerve (from UniProt P97372 1-239)”: the binding entry is recorded as “binds”.
As to “Stat3, endogenous in mouse sciatic nerve (from UniProt P42227 1-770)”, the binding result is “binds”.
